From article PMC4555926 come the findings set out here.

No constants are given. Whether binding was seen depends on the method and setting.

The target in the assay is SPRY domain of human DDX1, construct SPRY_72–283 (human) (UniProt Q92499). Description: dynamic light scattering; 25 µM (650 µg/ml) protein in storage buffer (10 mM HEPES-NaOH pH 8.0, 250 mM KCl, 5 mM MgCl2, 3 mM DTE); scattered light at 90°, hydrodynamic radius 2.8 nm; both purified.

B1: SPRY domain of human DDX1, construct SPRY_72–283 (domain or fragment, UniProt Q92499 72-283)
chain: QEGKKGKTTIKTGASVLNKWQMNPYDRGSAFAIGSDGLCCQSREVKEWHGCRATKGLMKGKHYYEVSCHDQGLCRVGWSTMQASLDLGTDKFGFGFGGTGKKSHNKQFDNYGEEFTMHDTIGCYLDIDKGHVKFSKNGKDLGLAFEIPPHMKNQALFPACVLKNAELKFNFGEEEFKFPPKDGFVALSKAPDGYIVKSQHSGNAQVTQTKFL
B1: the binding entry is “no binding (tested: 25 µM)”.
